From publication PMC7862700
Only a part is listed here, and it is no random draw. At the low end of the ranking the order means little.

Chains of the proteins cited; added tags and fusions are not shown. Lines headed by an entry give the natural chain unless they say otherwise; changes in a name come on top.
UniProt O43186: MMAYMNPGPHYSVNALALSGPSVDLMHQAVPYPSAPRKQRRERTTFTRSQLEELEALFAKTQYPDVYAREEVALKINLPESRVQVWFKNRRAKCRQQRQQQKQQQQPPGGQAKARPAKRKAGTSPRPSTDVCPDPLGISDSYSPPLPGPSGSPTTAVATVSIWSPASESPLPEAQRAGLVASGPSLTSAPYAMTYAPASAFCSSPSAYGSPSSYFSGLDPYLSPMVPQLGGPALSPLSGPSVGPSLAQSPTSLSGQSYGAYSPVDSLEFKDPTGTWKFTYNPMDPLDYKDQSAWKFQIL

Assays:
[1] = target: CRX (UniProt O43186); assay: DAPPL (digital affinity profiling via proximity ligation, sequencing); settings: 10 mM Tris-HCl pH 7.5, 50 mM NaCl, 1 mM DTT, 4% glycerol, room temperature, 30 min; GST-TFs on glutathione beads, 16-mer random dsDNA library, 0.1% …; high values mean tight binding; double strand, one strand shown; scale: fold enrichment (6-mer frequency, TF over GST control)
[2] = target: T1, ELF5 (UniProt Q9UKW6-2); assay: as above; settings: 10 mM Tris-HCl pH 7.5, 50 mM NaCl, 1 mM DTT, 4% glycerol, room temperature, 30 min; GST-TFs on glutathione beads, 16-mer random dsDNA library, 0.1% …; high values mean tight binding; double strand, one strand shown; scale: fold enrichment (6-mer frequency, TF over GST control)
T1 sequence: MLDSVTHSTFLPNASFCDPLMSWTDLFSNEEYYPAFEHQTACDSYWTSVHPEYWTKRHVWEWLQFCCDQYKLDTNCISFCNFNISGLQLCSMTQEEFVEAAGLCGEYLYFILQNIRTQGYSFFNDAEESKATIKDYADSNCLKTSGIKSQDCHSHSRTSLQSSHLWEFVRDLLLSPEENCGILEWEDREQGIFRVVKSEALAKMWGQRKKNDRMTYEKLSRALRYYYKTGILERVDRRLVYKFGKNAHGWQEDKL

Sequence | binding signal [1] | binding signal [2]
CTGGCA | 1.19 | 1.19
ATTGTC | 1.06 | 1.2
TTAGGC | 2.06 | 0.965
TACTGT | 1.11 | 1.14
CGGTTA | 0.88 | 1.07
TGATAT | 1.08 | 
TCGTCC | 0.774 | 
CCCCCC | 0.951 | 
GTAATC | 3.14 | 1.18
CATACG | 0.839 | 
TTCTAC | 1.69 | 1.54
TACCTA | 1.55 | 
GTCACT | 0.748 | 
CGTCTG | 0.872 | 0.933
GCCCCC | 0.845 | 
AACCCT | 1.39 | 1.28
TGCTTG | 0.973 | 
GCCTGA | 0.961 | 
CTTGGC | 1.03 | 1.12
CGGCAT | 0.892 | 1.07
CCTTCA | 1.34 | 
AAGTAG | 1.2 | 
CTCTCG | 1.32 | 
AGCACA | 0.883 | 1.05

4 entries from above, tab-delimited.
Sequence	binding signal [1]	binding signal [2]
ATTGTC	1.06	1.2
CGGTTA	0.88	1.07
GTCACT	0.748	
CTCTCG	1.32	

Next part.

Sequence | binding signal [1] | binding signal [2]
GCAATT | 0.976 | 
GTTAAG | 1.87 | 
AGCTCA | 1.45 | 0.988
TCACTC | 1.05 | 1.1
ACACTC | 0.882 | 1.05
ACGACT | 1.19 | 
CCACAG | 0.754 | 0.878
GTACCA | 0.783 | 0.965
GATAGC | 0.902 | 0.993
GGCTTA | 3.34 | 0.999
TCCACC | 1.04 | 1.19
CAGACT | 0.969 | 0.941
AACGCA | 0.877 | 1.04
GTGGCC | 0.754 | 0.912
GTACTA | 1.12 | 1.13
TAGACA | 1.03 | 0.955
ACTGAA | 1.04 | 1.11
TTATAA | 2.9 | 1.19
ACGCCG | 0.83 | 0.987
CCCTGC | 0.994 | 1.2
ATAGTT | 1.1 | 1.12
CACATC | 0.868 | 1.42
ACCAAA | 0.955 | 0.999
